Reference: US12721861B2, “Delivery and retention of active agents within the skin” (Fount Bio, Inc., priority 2019, dated 2026)
Some results were stated once for a whole list of compounds, not compound by compound. At least one structure is not confirmed: it was looked up by name or label, or the drawing left a doubt.

Assay: Distribution of chemical species in EpiDerm tissue by HPLC with sequential extractions
Format: in vitro ADME, human
Details: for applied amount remaining in the donor solution: after 6 h exposure to the tissue; for total recovery: donor, acceptor and 1:1 MeOH:PBS extract
Description: To further study the penetration of gly-CBT within human skin tissue, HPLC was used to quantify the distribution of different chemical species after application of gly-CBT and gly-aminoLuciferin (gly-Luc) into EpiDerm™ tissue. As described above, 100 μL of gly-CBT and gly-Luc was applied on the top of the skin tissue. Following 6 h incubation, the donor and acceptor solutions were collected and the chemical species which penetrated the skin were attempted to be extracted with 1:1 MeOH:PBS. Following the first extraction protocol, the tissue inserts were rinsed with PBS and imaged in a dark room by exposing with a UV254 lamp. Following the imaging, further extractions were carried out sequentially with 1.0% Triton X-100, acidified MeOH (0.1% TFA), and DCM. Neither of the later extractions were successful in extracting out any additional CBT species.

SMILES | applied amount remaining in the donor solution [%] | total recovery [%]
NCC(=O)Nc1ccc2nc(C3=NC(C(=O)O)CS3)sc2c1 (stereo not shown) [gly-Luc, gly-aminoLuciferin] | < 20 | < 60
N#Cc1nc2ccc(NC(=O)CN)cc2s1 [gly-CBT] | < 20 | < 60
